Data on 107 sequences can be found in PubChem BioAssay AID1508600 (Functional Genomics Laboratory (NCATS/FGL), 2020).

In all, about 53,000 sequences went through this assay and about 3,700 (7%) were called active.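 The calls were made as follows: active = gene knockdowns whose robust z-score for IL-1 alpha signal is at least 2 or at most -2, so actives lie on both sides; inactive = the rest.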 The list shows a part of the results.

A short description of this test: Components of the Cytosolic LPS Sensing Pathway: Gene Identification via Genome-wide siRNA Screen.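 Also: robust z of the log signal after scaling to non-targeting control siRNA wells of the plate.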 Conditions: RAW264.7 macrophages, IL-1a HTRF, actives lie on both sides, screened at 100 nM (by protocol), cells primed 5 h with Pam3CSK4 first. In outline: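 Knockdown: 100 nM siRNA, 48h, RAW264.7. Stimulation: Pam3CSK4 5 h, then LipidA via TransIT-TKO 24 h. Output: supernatant IL-1a HTRF, negative-control-normalized, log robust z-score; viability by CellTiter-Glo.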
Consider GCACAAAAAAGUGAUAUUGTT against Hdlbp, for which the z-score was inactive: 0.41.

On to CGGUCAUUAAUGAAGCCUGTT against Pamr1, for which the z-score was active: 2.65.

As to GCAACUGGACAUUUAACAATT against Epgn, the z-score was inactive: 1.38.

With CCUCAAGGCUCAUAAAACATT against Zfp598, the z-score was inactive: -1.56.

As for GGCUUUGUGGACUUAAUUATT against Cyb5r2, the z-score is inactive: -1.

As for GGAUUGCUUCAAUGAGGAATT against Scgb2b27, the z-score was inactive: 0.135.

For GCAAGCUCAAAGCUUACGATT against Kcnv2, the z-score was inactive: -0.0806.

On to GGUCCUGUGCUCUACUUUGTT against Gng10, for which the z-score is inactive: 1.56.

As to GGACUUGAUCAACUCUAUCTT against Supt3, the z-score is inactive: 0.524.

Regarding CGUGACAAAUUGAAGGAAATT against Itsn2, the z-score is inactive: -0.419.

Take GGUGUACCAGAAUGAGAAGTT against Akr1b3: the z-score was inactive: 0.611.

Regarding GCCUCUUUGGGUUCGUUUCTT against Opn3, the z-score is inactive: 0.797.

In the case of GGACAACCACUUUAAGCUUTT against Tars2, the z-score is inactive: 1.04.

GCAUCUCGGAAGAUCCUGUTT against Vip: the z-score is inactive: -0.251.

Regarding UCCAGACUGUACCAUUCCATT against Mesp1, the z-score was inactive: -0.147.

Turning to GCUAAAGGAGUAUAAUAGUTT against Kirrel3os, the z-score was inactive: 0.718.

As to GCCAGUAUUGUGCAACAAGTT against Klrk1, the z-score is inactive: -1.36.

On to GGACCAAUUGGAUCCUUUUTT against Olfr1340, for which the z-score was inactive: -1.6.

In the case of GCACUUACUCUUCAACGGGTT against Yae1d1, the z-score was inactive: 1.87.

In the case of GGACCAGUUCUGGUUCAGATT against Fmn2, the z-score was inactive: 0.992.

As for GCUAGAAAAAAAUCAGUUGTT against Eif2a, the z-score was inactive: 0.6.

As for GGAAUUUAGUGUGCGGUCGTT against Oxa1l, the z-score was inactive: 0.0947.

Turning to CCACACCUAUCUUCUACGUTT against Mars2, the z-score was inactive: -0.306.

As for GAUUACCGCACUUCAGAUCTT against Cep44, the z-score was inactive: 0.347.

On to CGCUGAAAGUGAACGUAGGTT against Kcnv2, for which the z-score is inactive: -1.14.

GCCUUAACUAUAGUCCAGATT against Scn7a: the z-score was inactive: -0.928.

For GCCUCACUUUGACUGUCGCTT against Tpgs2, the z-score was inactive: -0.289.

Take UGUUACAACUCUUUGUGGUTT against Olfr1193: the z-score is inactive: -1.15.

In the case of GCCAAGCUUAAGAACUUAATT against Oas3, the z-score is inactive: 1.51.

GCAGUAUCUAUGCUCUUGATT against Hand1: the z-score is inactive: -1.15.

As for GCUUGUUCGGUCCUUUGAUTT against Fbxw9, the z-score was inactive: 0.56.

GGUAGACUUCGACAUCAAGTT against Hs6st2: the z-score is inactive: 1.65.

Turning to GACGCAGAUGGUAUUUUUUTT against Orm2, the z-score is inactive: 1.24.

For the sequence CCUAGUCAAGGAUAGGUAUTT against AY702103, the z-score is inactive: -1.01.

As to GGAUAUCAGGAACAUAGUATT against P3h3, the z-score is inactive: -0.735.

Consider GGGAUUUUAUCAUACAAACTT against Ppil4, for which the z-score was inactive: 0.774.

With GGAUGUGAGUGAGACUGUCTT against Mtm1, the z-score was inactive: 0.781.

Turning to GCAAUAAUGGCAAGAAUGGTT against Otud7a, the z-score is inactive: -0.102.

For the sequence GAACUGGACAACUUUCUCCTT against Olfr1355, the z-score is inactive: -0.0399.

Turning to GGCACUUUUUGUUUUCAUGTT against Nckap1, the z-score is inactive: 0.505.

With GUUUGCUGCACCCUACUUATT against H2bc21, the z-score was inactive: -0.727.

As for CCUGAUUGUCACUCCUUUUTT against Pde4b, the z-score was inactive: 0.753.

For the sequence CCGACUAAUGCCAUCUUCATT against Pcbp2, the z-score was inactive: -1.29.

GGCAGAAUAUGAGUUUGAUTT against Camk1d: the z-score was inactive: -0.161.

On to GGAAGAUCGAGAAUGUUCCTT against Ppih, for which the z-score was inactive: 0.174.

On to GCAAUUACCUCUGAAAGGCTT against ccdc198, for which the z-score was inactive: -0.922.

Regarding GGGCAGUUUUCUCUAUAGGTT against Zfp740, the z-score is inactive: 1.26.

For the sequence UAUGCUGGCAGGGACACCUTT against Scarf1, the z-score was inactive: 0.263.

Consider GGUUUUAUUAACUCUGUGATT against Olfr1013, for which the z-score is inactive: 0.453.

Take GGUUGCAUCACAGCGUAUATT against Phlpp1: the z-score is inactive: 0.759.

With GGUGUUGUCAGAAGUUUAATT against Slc22a13b, the z-score is inactive: 1.8.

In the case of CGAAUAGGAUUUCGACCUGTT against Fbxw19, the z-score is inactive: 0.36.

Take GCAUAGAUUCUCGAGUUUATT against Sugt1: the z-score was inactive: 0.754.

GCAGGCUACCUCUAAUCCATT against Slc23a3: the z-score was inactive: -0.241.

Take GGCUAGAGCAUCAAGGAAUTT against Vps26a: the z-score is inactive: 0.626.

In the case of CGUUUGCUUUUCAUCGUGGTT against Olfr154, the z-score was inactive: 0.107.

As for GGAAAGUUGAAGAUUAAAGTT against Hsdl2, the z-score was inactive: 0.235.

With GGCAAUGAGAGUGCAUAUGTT against Lypd3, the z-score was inactive: -1.61.

As for CCUCCAGGAUUAUCGUGAUTT against Dnajc6, the z-score is inactive: -1.22.

As to GCAAAACGUAGCAGAAUUGTT against Magee1, the z-score was inactive: 0.227.

GGUGGACAACGUGUUUGACTT against Atg101: the z-score is inactive: 1.43.

Regarding CCUGAAUUACAGGGACCAGTT against Znrd1, the z-score is active: 3.49.

“CCUUUUAGUGAAAAUAGCATT against A430010J10Rik”: the z-score is inactive: -0.924.

With CGUGAUAGUAGUGAAGUGATT against Usp22, the z-score was inactive: -0.626.

As to CCUGACAAGGUUUUAGCCUTT against Ttpal, the z-score was inactive: 0.793.

Take GCCUAUCCCGAUGUUGUUGTT against Ap3m1: the z-score is inactive: -0.825.

Consider CGAGCUGAACAGAAUGAUATT against Krt85, for which the z-score was inactive: 0.265.

As for UCUUACACUUCGUGUUCCATT against Gpr6, the z-score was active: 3.12.

Consider GGAUUUGUGAAGUUUUUUGTT against Psmd5, for which the z-score is inactive: 1.68.

In the case of CCAGACCACUUCCCAUUCUTT against Aqr, the z-score is inactive: -0.798.

In the case of GGUCAUGCAAUUUAUAAGATT against Fig4, the z-score is inactive: -0.0415.

Consider CGAUUUAGUGGAACAAAUGTT against Nln, for which the z-score was inactive: -0.291.

Regarding GGUUCACAUGUACAUUAAATT against Cracd, the z-score is inactive: -0.156.

In the case of GGCAAAGCUAAAGGCCAAATT against Ensa, the z-score was inactive: 0.38.

For the sequence GCGAGUACUUUCCGCUGUUTT against Ltc4s, the z-score was inactive: 0.508.

With GGAAUUUGUCCAGAGUCACTT against Treh, the z-score is inactive: -1.41.

With GGCCAUGAUUGUGUUUCAGTT against Tspan8, the z-score is inactive: 1.76.

With GGAAGAAUGGGCUUUCUAGTT against Pask, the z-score was inactive: 0.0833.

On to GCUAUGACUUCAACGACUATT against Pcsk4, for which the z-score was inactive: -0.309.

Turning to CCAGUCACGUUUUAAAAGCTT against Ccdc166, the z-score is inactive: -0.696.

On to GGAUGACAUCUCUAUCUUUTT against Atxn10, for which the z-score is inactive: 0.559.

For GCUUUAAUGUUGACCUAGUTT against Lgals8, the z-score is inactive: -0.403.

Take GGUCUUUGCCUUGAUUCAUTT against Hmgxb3: the z-score was inactive: -0.576.

For GGGAGGAUAUUUUUUUGAATT against Cemip, the z-score was inactive: -0.0737.

For the sequence GGAACGACCAAAAGUGACGTT against Emcn, the z-score is inactive: 0.525.

As for GGGUCAGGACUCCUUUAUGTT against Aen, the z-score was inactive: -1.94.

Regarding CGGGCUGUUCAGAAAUCGATT against Trmu, the z-score was inactive: -0.958.

Regarding GGUGACAAACCGAUACUUGTT against Cope, the z-score is inactive: -0.966.

Take GGUGGCACAUCAGUGUUUGTT against H2al2a: the z-score is inactive: 1.16.

For the sequence GCUGACUUCGGAGAUUAUATT against Ptpn14, the z-score is inactive: -0.0471.

For the sequence CCUCUGUUUGCACUUAUUATT against Gabrr1, the z-score was inactive: -0.232.

Turning to GGUUAUCGCCCAAUGACGGTT against Dmrt2, the z-score was inactive: 0.469.

For the sequence GGAGGUCCAAGUAGCUCUUTT against Olfr5, the z-score was inactive: -1.11.

Regarding GGCCUAAACACGGUUUUCATT against Ppm1n, the z-score was active: 3.72.

For GGUGGUGUUAAAAUAUACUTT against Gnl3, the z-score was active: 3.07.

“GCUAAUCCCAUCUCGUCCUTT against 3110009E18Rik”: the z-score was inactive: 1.15.

For the sequence GGUGUCCUCCUUUCAGUUUTT against Tas2r114, the z-score was inactive: -0.16.

For GGUGAUGGUCCAGAUUAACTT against Plpbp, the z-score is inactive: -0.0895.

For GGUUCUGGUUUAGAUGCUATT against H2aw, the z-score is active: 2.36.

As for GGAGUAGUGAAGAUUCGGATT against Fdft1, the z-score is inactive: 0.651.

Regarding “GGCCUGAAGACAGACAUGATT against C030016D13Rik”, the z-score is inactive: -1.2.

GGGCUGAGUUAGAUUAAAATT against Cds1: the z-score was inactive: 0.65.

Turning to GGCUAUUUUUUAGCAAAGATT against Wasl, the z-score was inactive: -0.0743.

Take GGCAAGUUAAAAAUGGUAGTT against Tjp1: the z-score was inactive: -1.99.

Regarding GGAAUAAUAUGCAUGUAGATT against Rab21, the z-score is inactive: -0.911.

As to “GGAAGUGGUUGCUUAGGCATT against 1700041G16Rik”, the z-score is inactive: 0.363.

With CCGUGAAAGUACAUUGUAUTT against Dennd11, the z-score is inactive: 0.121.
